The values below come from paper doi:10.1101/2020.03.16.993600.

Protein sequences, listed by entry. Tags and fused reporters are not part of them. Lines headed by an entry give the natural chain unless they say otherwise; changes in a name come on top. Chains listed by the source or under a name are the forms on record and can include a tag or linker.
UniProt Q96PZ2: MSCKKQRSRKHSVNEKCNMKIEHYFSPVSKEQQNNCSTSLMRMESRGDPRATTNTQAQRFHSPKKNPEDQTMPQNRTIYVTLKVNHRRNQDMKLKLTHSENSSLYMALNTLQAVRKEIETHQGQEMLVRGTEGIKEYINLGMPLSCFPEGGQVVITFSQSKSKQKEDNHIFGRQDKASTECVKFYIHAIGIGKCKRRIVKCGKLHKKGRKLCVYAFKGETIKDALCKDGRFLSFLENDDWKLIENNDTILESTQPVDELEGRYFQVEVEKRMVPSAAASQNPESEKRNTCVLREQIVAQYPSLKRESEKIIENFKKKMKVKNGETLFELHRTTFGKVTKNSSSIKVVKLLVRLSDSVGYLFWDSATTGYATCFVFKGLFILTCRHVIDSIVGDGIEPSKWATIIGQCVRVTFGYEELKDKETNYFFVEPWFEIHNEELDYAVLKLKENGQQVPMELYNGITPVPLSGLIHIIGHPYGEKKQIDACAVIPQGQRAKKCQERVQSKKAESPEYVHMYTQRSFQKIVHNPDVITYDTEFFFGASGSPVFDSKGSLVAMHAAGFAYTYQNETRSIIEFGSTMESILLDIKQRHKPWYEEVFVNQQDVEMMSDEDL
GFP-FAM111A *PIP (Q96PZ2, form named): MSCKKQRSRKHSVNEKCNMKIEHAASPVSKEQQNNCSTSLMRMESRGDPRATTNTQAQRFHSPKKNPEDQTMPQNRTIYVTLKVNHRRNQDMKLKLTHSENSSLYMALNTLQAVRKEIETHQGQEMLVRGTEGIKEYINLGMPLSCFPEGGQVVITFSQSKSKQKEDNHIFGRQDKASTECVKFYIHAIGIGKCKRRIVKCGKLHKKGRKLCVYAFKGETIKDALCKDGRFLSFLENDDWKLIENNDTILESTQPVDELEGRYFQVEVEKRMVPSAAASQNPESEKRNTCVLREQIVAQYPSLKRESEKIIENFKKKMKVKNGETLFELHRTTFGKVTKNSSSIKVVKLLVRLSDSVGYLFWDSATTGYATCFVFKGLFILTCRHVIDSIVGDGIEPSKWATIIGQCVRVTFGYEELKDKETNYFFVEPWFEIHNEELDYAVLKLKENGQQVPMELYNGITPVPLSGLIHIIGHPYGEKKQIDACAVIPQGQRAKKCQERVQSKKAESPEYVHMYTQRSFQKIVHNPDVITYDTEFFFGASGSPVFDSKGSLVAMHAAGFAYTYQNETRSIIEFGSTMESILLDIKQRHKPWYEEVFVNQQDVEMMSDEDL

Results are given in words; binding and its absence hold for the method and conditions named. In cells and extracts the contact can be indirect. Some binding calls cover weakened binding; strength is not graded here. For some assays here: Where a sequence is shown, tags or fusion partners need not be part of it.

Assay in all cases: co-IP
Test [1] concerns the target T1, RFC1 (endogenous) (human (endogenous in U2OS)) (UniProt P35251).
T1 sequence: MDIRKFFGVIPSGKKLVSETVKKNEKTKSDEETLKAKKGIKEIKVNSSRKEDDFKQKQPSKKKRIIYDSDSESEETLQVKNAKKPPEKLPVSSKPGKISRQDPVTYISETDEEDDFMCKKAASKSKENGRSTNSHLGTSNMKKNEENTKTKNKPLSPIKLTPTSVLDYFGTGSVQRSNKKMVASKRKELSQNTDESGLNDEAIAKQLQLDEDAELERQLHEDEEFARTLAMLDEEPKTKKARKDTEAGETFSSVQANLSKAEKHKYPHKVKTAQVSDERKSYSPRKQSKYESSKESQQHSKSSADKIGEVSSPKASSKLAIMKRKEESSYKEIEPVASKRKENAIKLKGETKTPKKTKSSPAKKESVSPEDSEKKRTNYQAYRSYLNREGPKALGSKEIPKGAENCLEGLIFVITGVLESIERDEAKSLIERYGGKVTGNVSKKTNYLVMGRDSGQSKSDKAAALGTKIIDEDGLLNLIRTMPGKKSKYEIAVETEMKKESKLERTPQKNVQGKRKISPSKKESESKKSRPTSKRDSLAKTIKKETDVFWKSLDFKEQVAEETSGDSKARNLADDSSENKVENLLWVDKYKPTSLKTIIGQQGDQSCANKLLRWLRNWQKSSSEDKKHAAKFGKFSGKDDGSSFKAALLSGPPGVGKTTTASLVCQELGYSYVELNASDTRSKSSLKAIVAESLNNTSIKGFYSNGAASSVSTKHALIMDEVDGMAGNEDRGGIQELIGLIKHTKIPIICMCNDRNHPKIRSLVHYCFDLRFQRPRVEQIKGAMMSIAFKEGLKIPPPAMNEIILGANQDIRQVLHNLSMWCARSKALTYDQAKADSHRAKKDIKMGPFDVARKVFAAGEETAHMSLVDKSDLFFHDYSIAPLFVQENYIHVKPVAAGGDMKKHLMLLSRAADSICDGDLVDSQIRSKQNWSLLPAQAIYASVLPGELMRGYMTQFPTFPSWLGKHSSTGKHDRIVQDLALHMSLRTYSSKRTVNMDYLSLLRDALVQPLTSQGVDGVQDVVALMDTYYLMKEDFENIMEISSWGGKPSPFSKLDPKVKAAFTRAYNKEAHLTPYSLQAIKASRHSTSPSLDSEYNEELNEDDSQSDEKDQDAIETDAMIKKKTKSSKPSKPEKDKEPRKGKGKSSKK

The target of another test is T2, GFP-FAM111B WT (human) (UniProt Q6SJ93).
T2 sequence: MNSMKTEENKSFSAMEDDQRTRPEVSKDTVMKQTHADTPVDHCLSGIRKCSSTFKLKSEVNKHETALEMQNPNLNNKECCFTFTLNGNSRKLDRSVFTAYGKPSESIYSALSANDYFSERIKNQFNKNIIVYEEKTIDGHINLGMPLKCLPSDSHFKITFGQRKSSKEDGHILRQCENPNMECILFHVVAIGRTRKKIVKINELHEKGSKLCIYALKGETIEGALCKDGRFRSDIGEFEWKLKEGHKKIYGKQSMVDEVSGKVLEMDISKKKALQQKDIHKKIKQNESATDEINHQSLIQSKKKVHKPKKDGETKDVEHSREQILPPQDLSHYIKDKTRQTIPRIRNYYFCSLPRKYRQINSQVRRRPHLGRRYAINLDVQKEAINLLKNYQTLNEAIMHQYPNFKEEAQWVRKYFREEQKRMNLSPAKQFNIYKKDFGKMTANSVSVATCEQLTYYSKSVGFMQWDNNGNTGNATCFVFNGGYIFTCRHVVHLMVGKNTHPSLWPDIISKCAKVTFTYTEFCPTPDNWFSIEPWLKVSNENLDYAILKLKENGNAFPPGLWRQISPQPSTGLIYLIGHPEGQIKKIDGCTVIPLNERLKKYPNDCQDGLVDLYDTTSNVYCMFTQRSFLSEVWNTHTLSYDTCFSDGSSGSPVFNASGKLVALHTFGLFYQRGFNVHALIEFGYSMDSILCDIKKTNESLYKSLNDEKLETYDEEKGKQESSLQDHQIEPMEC

In the next test the target is T3, FLAG-tagged RFC1 (human) (UniProt P35251).
T3 sequence: T1 sequence

A further test concerns the target GFP-FAM111A WT (human) (UniProt Q96PZ2).

Turning to “GFP-FAM111A *PIP (from UniProt Q96PZ2 1-611) (enzyme)”, the binding result in test [1] is on record as “binds”.

Take “FAM111A (endogenous) (from UniProt Q96PZ2 1-611) (enzyme)”: the binding entry (in test [1]; in the test with GFP-FAM111B WT (human); with FLAG-tagged RFC1 (human)) was “binds” throughout.

B1: FAM111B (endogenous) (enzyme, UniProt Q6SJ93 1-734)
chain: T2 sequence
Consider B1, for which the binding result with GFP-FAM111A WT (human) is on record as “binds”.
